In patent publication US20240116971A1, “NMN AND DERIVATIVES FOR ITS USE IN THE TREATMENT OF DEPRESSION AND/OR ANXIETY IN PATIENTS HAVING A FORM OF PARKINSONISM” (Nuvamid SA, priority 2021, published 2024):

Experiment: Observance of treatment (compliance)
Design: species or system human
Experimental: [table] The data analysis was performed using two complementary strategies: the modified intention to treat (mITT) and the per protocol (PP). […] The PP analysis only concerns patients who strictly adhered to the protocol.

NC(=O)c1ccc[n+]([C@@H]2O[C@H](COP(=O)([O-])O)[C@@H](O)[C@H]2O)c1 [beta-NMN, nicotinamide mononucleotide]
mean value of compliance (PP population, period V1-V4 (ranging from 97.8 to 100%)): 99.2±1.1%
mean compliance value (mITT population, period V1-V4 (ranging from 92.5 to 100%)): 98.4±2.6%
